Experimental data taken from patent EP0063525A1, “Dibenzazepine tetracyclic derivatives, process for their preparation and pharmaceutical compositions containing them” (CENTRE NATIONAL DE LA RECHERCHE SCIENTIFIQUE (CNRS), priority 1981, dated 1982).

System: Souris
Assay: tetrabenazine hypothermia
Format: in vivo
Details: before tétrabénazine
Protocol: Ce test permet de révéler également une activité antidépressive avec l'avantage d'une lecture plus rapide qu'avec la réserpine.
Les produits sont injectés 30 minutes avant l'administration de tétrabénazine.
Les températures sont relevées aux temps : 0, 30 minutes, 60 minutes, 90 minutes et 120 minutes.
Les souris sont réparties par lots de 5.
Les températures sont relevées avant l'injection de tétrabénazine, 30 minutes, 60 minutes, 90 minutes et 120 minutes après.
Le lot témoin comprend 20 souris.

O=C(O)CCCCCCNC1c2ccccc2CCc2ccccc21 [Aminep-tine, amineptine, reference compound]
Température 30 minutes après administration du produit (product i.p. 80 mg/kg): 36,1 °C

CN(C)CCN1c2ccccc2C2ON=C(c3ccccc3)C2c2ccccc21 (stereo not drawn) [Composé 2, (β-diméthylaminoéthyl)-8 phényl-3 trihydro-3a,8, 12b (dibenzo [b,f]isoxazolo [4,5-d])azépine]
Température 30 minutes après administration du produit (product i.p. 5 mg/kg): 37,6 °C

CN(C)CCCN1c2ccccc2C2ON=C(c3ccccc3)C2c2ccccc21 (stereo not drawn) [compound 3, (γ-diméthylaminopropyl)-8 phényl-3 trihydro-3a, 8,12b (dibenzo [b,f]isoxazolo [4,5-d])azépine]
Température 30 minutes après administration du produit (product i.p. 50 mg/kg): 34,4 °C

CN(C)CCN1c2ccccc2C2C(c3ccccc3)=NN(c3ccccc3)C2c2ccccc21 (stereo not drawn) [compound 7, (β-diméthylaminoéthyl)-8 diphényl-1,3 tétrahydro-1,3a, 8, 12b (dibenzo [b,f]pyrazolo [3,4-d]) azépine]
Température 30 minutes après administration du produit (product i.p. 100 mg/kg): 35,3 °C

CN(C)CCN1c2ccccc2-c2c(-c3ccccc3)nn(-c3ccccc3)c2-c2ccccc21 [compound 13]
Température 30 minutes après administration du produit (product i.p. 200 mg/kg): 35,6 °C

CN(C)CCCN1c2ccccc2-c2onc(-c3ccccc3)c2-c2ccccc21 [compound 18]
Température 30 minutes après administration du produit (product i.p. 50 mg/kg): 35,2 °C

CN(C)CCN1c2ccccc2C=Cc2ccccc21 [compound 20, (β-diméthylaminoéthyl)-5 dibenzo [b,f] 5H azépine, reference compound]
Température 30 minutes après administration du produit (product i.p. 50 mg/kg): 35,6 °C

CC(CN(C)C)CN1c2ccccc2C=Cc2ccccc21 (stereo not drawn) [compound 22, (méthyl-2 diméthylamino-3 propyl)-5 dibenzo [b,f] 5H azépine, reference compound]
Température 30 minutes après administration du produit (product i.p. 25 mg/kg): 32,5 °C

( [1'-(β-hydroxyéthyl-4') pipérazinyl]-3propyl)-8 diphényl-1,3 tétrahydro-1,3a, 8,12b(dibenzo[b,f] pyrazolo [3,4-d])azépine [compound 10]
Température 30 minutes après administration du produit (product i.p. 150 mg/kg): 34 °C
